# Assay results taken from PubChem BioAssay AID1347075 (National Center for Advancing Translational Sciences (NCATS), 2019).
# In all, about 400,000 compounds went through this assay and about 5,500 (1.4%) were called active. The inconclusive results got no clear call from the source; some entries with a clear call stand among them for comparison. Calls come from the whole dose curve; as a rule, active = well fitted cell-killing curve with a large enough effect; inconclusive = small, poorly fitted or top-dose-only effect, or effect the other way; inactive = flat fitted curve, though single readings scatter. Potencies of inconclusive entries are doubtful fits and often do not repeat.
# Assay: qHTS assay for MDR1-selective chemotherapeutics: Primary screen using the parental adenocarcinoma cell KB-3-1; note: nearly all actives have a fitted effect of over 60% in size
# Conditions: KB-3-1 viability, CellTiter-Glo ATP luminescence, 72 h; series mostly up to 46.1 µM
# Procedure, shortened: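 Using CellTiter-Glo luminescence, growth of non-resistant KB-3-1 adenocarcinoma cells is assessed 72 h after pin-tool compound addition at 37 °C. Normalized responses across the concentration series yield fitted curves.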
# Potency is the fitted concentration of half-maximal effect.
row,SMILES,Potency
1,CC(=O)Oc1ccc(C(=O)Nc2cccc(C(=O)c3ccc(C)c(C)c3)c2)cc1,active: 16.4 µM
2,CCOC(=O)c1cccc(Nc2cc(C)nc(C)n2)c1,inactive
3,CN(C(=O)c1cccc(NC(=O)Cc2ccc(NC(=O)C3CCCN(C(=O)c4ccccc4)C3)cc2)c1)C1CCCC1 (stereo unspecified),inactive
4,COC(=O)[C@@]12C[C@@H](CC(=O)NCCc3ccccc3OC)C(=O)N(Cc3cccc4ccccc34)C1=CCC(C)(C)C2,"inconclusive: 20.6 µM [cytotoxic, single point]"
5,COc1ccc(S(=O)(=O)N2CCC3(CC2)OCCO3)cc1,inactive
6,COc1ccccc1NC(=S)NC(=O)C(C)C,"inconclusive: 9.2 µM [rising, partial curve, poor fit]"
7,C#CCOCCOCCOCCNc1nc(N2CCN(C(=O)CCCCCCCCCCNC(=O)Cn3cc(CCCCCN)nn3)CC2)nc(N2CCN(C(=O)CCCCCCCCCCNC(=O)[C@@H]([C@H](C)O)n3cc(C)nn3)CC2)n1,"inconclusive: 29.1 µM [cytotoxic, single point]"
8,COc1ccc(-c2cc(C(=O)Nc3ccc(OC)c(OC)c3)[nH]n2)c(C)c1,inactive
9,Cc1cccc(-n2ncc3c(Nc4c(C)cc(C)cc4C)ncnc32)c1,active: 9.2 µM
10,CCc1ccc(NC(=O)c2ccc3c(c2)c(C)c(C)n3Cc2ccccc2)cc1,"inconclusive: 16.4 µM [cytotoxic, single point]"
11,COc1cc(/C=C/C(=O)OCC(=O)N2c3ccccc3NC(=O)C2(C)C)cc(OC)c1OC,"inconclusive: 18.4 µM [cytotoxic, partial curve, poor fit]"
12,CCCCOc1ccc(C2c3c(oc4ccccc4c3=O)C(=O)N2c2nc(C)c(C(=O)OCC)s2)cc1OC (stereo unspecified),"inconclusive: 29.1 µM [rising, single point]"
13,CC(Oc1ccc(F)cc1)C(=O)Nc1ccc(S(=O)(=O)NC2=NCCCCC2)cc1 (stereo unspecified),inactive
14,Cc1c(C(=O)Nc2ccc(Cl)cc2)c2ccccn2c1C(=O)c1ccccc1,"inconclusive: 29.1 µM [cytotoxic, single point]"
15,O=C(NC(c1ccccc1)c1ccc2ccccc2n1)C1CCN(CCOc2ccc(Cl)cc2Cl)CC1 (stereo unspecified),"inconclusive: 29.1 µM [cytotoxic, single point]"
16,COc1ccc(NC(=O)c2cc(-c3cc(C)cc(C)c3O)n[nH]2)cc1Cl,"inconclusive: 35.5 µM [cytotoxic, single point]"
17,CC(C)(C)OC(=O)N(CCc1ccccc1)Cc1ccc(OCc2cccc(NC(=O)C3CC3)c2)cc1,"inconclusive: 11.6 µM [cytotoxic, partial curve]"
18,C=CCn1c(C)nc2c(sc3nc4c(cc32)COC(C)(C)C4)c1=O,"inconclusive: 0.461 µM [rising, full curve, poor fit]"
19,COc1ccc(Nc2nc(-c3cccnc3)nc3ccccc23)cn1,"inconclusive: 29.1 µM [cytotoxic, single point]"
20,Cn1c(SCC(=O)NCCC2=CCCCC2)nnc1C(F)(F)F,inactive
21,CCC1(C)Cc2ccccc2-c2nc(NCCCO)n(-c3ccccc3)c(=O)c21 (stereo unspecified),"inconclusive: 29.1 µM [cytotoxic, single point]"

row,SMILES,Potency
1,CC(=O)c1ccc(NC(=O)c2ccc(CN3C(=O)CCn4nc(C)cc43)cc2)cc1,inactive
2,CC(C)C(=O)Nc1ccc(NC(=O)CCc2ccccc2)cn1,"inconclusive: 29.1 µM [rising, single point]"
3,Nc1nc(N)c(Cc2ccc(Cl)cc2Cl)c(N)n1,inactive
4,Cc1ccc(-c2nnn(CC(=O)N(CCN3CCOCC3)C(C(=O)NC(C)(C)C)c3ccco3)n2)cc1 (stereo unspecified),"inconclusive: 20.6 µM [rising, single point]"
5,Cc1c(Cl)cnc(NC(=O)COC(=O)c2cccc(S(=O)(=O)N3c4ccccc4CC3C)c2)c1Cl (stereo unspecified),inactive
6,CCN(CC)c1ccc(NC(=O)CC2Oc3ccccc3NC2=O)c(C)c1 (stereo unspecified),"inconclusive: 29.1 µM [cytotoxic, single point]"
7,COc1ccc(NC(=O)/C(Cl)=C(/Cl)S(=O)Cc2ccccc2)cn1 (stereo unspecified),active: 5.8 µM
8,CCOc1nc(NCCC2=CCCCC2)nc(N2CCOCC2)n1,inactive
9,CC(=O)/C(C#N)=C1\NC(=O)C(Cc2ccccc2C)S1 (stereo unspecified),"inconclusive: 1.3 µM [cytotoxic, full curve, poor fit]"
10,N#Cc1ccc[n+](CC(=O)c2ccc(NC(=O)c3ccccc3)cc2)c1,inactive
11,COCCN1C(=O)c2oc3cc(C)c(C)cc3c(=O)c2C1c1cccc(O)c1 (stereo unspecified),"inconclusive: 8.2 µM [rising, partial curve, poor fit]"
12,COC(=O)c1ccccc1NC(=O)c1cc(=O)c2ccc(C)c(C)c2o1,"inconclusive: 13 µM [rising, partial curve]"
13,Cc1ccc2c(c1)c(C)cc[n+]2Cc1ccccc1,active: 8.2 µM
14,Cc1c(C)c2ccc(OCC(=O)NCCN3CCOCC3)c(C)c2oc1=O,"inconclusive: 2.06 µM [rising, partial curve]"
15,Cc1ccc([N+](=O)[O-])cc1NC(=O)CN(C(=O)c1ccc(Cl)cc1)C1CCCCC1,"inconclusive: 32.6 µM [cytotoxic, partial curve, poor fit]"
16,COc1ccc(NC(=O)/C(Cl)=C(/Cl)S(=O)Cc2ccc(Cl)cc2)cn1 (stereo unspecified),active: 7.31 µM
17,COc1cc2c(-c3ccc4cc[nH]c4c3)c(-c3ccsc3)oc(=O)c2cc1OC,"inconclusive: 16.4 µM [cytotoxic, single point]"
18,C[C@@H]1CN([C@H](C)CO)C(=O)c2c(c3ccccc3n2C)-c2ccccc2CO[C@@H]1CN(C)C(=O)Nc1ccc2c(c1)OCO2,"inconclusive: 29.1 µM [rising, single point]"
19,Cc1c(CN2CCC(CO)(CCOc3ccccc3)CC2)[nH]c2c(Cl)cccc12,"inconclusive: 29.1 µM [cytotoxic, single point]"
20,Cc1ccc(NC(=O)Cn2cc(S(=O)(=O)NC(C)C)c(S(=O)(=O)NC(C)C)c2)cc1Cl,"inconclusive: 29.1 µM [cytotoxic, single point]"

# 3 structures out of the list, sorted by SMILES length, ascending:
row,SMILES,Potency
2,CCOC(=O)c1cccc(Nc2cc(C)nc(C)n2)c1,inactive
18,C=CCn1c(C)nc2c(sc3nc4c(cc32)COC(C)(C)C4)c1=O,"inconclusive: 0.461 µM [rising, full curve, poor fit]"
10,CCc1ccc(NC(=O)c2ccc3c(c2)c(C)c(C)n3Cc2ccccc2)cc1,"inconclusive: 16.4 µM [cytotoxic, single point]"
